These are yes or no findings as the source states them, for the method shown. Binding seen in cells or lysates may run through a third protein. A result given as binding can be weak or reduced; the word gives no strength.
Target: FLAG-labeled IGF2BP3 KH1–2 domain fragment
Assay: co-IP; FLAG-tagged full-length or fragment IGF2BP3 plasmids transfected into HEK293T; IP with FLAG antibody, immunoblot with MKRN2 antibody; RIPA lysis with protease and ribonuclease inhibitor; Protein A/G magnetic beads overnight at 4 °C; washes with NT2 buffer (50 mM Tris-HCl pH 7.4, 150 mM NaCl, 0.05% Nonidet P-40, 1 mM MgCl2)

B1: MKRN2 in HEK293T lysate (detected with MKRN2 antibody) (protein, UniProt Q9H000 1-416)
chain: MSTKQITCRYFMHGVCREGSQCLFSHDLANSKPSTICKYYQKGYCAYGTRCRYDHTRPSAAAGGAVGTMAHSVPSPAFHSPHPPSEVTASIVKTNSHEPGKREKRTLVLRDRNLSGMAERKTQPSMVSNPGSCSDPQPSPEMKPHSYLDAIRSGLDDVEASSSYSNEQQLCPYAAAGECRFGDACVYLHGEVCEICRLQVLHPFDPEQRKAHEKICMLTFEHEMEKAFAFQASQDKVCSICMEVILEKASASERRFGILSNCNHTYCLSCIRQWRCAKQFENPIIKSCPECRVISEFVIPSVYWVEDQNKKNELIEAFKQGMGKKACKYFEQGKGTCPFGSKCLYRHAYPDGRLAEPEKPRKQLSSQGTVRFFNSVRLWDFIENRESRHVPNNEDVDMTELGDLFMHLSGVESSEP
binding: binds
